# Source: paper PMC7819943, “Rice protein-binding microarrays: a tool to detect cis-acting elements near promoter regions in rice”
# The chains behind the UniProt entries cited, without tags or fusion partners.
# UniProt Q0JBA9, entry or part of it: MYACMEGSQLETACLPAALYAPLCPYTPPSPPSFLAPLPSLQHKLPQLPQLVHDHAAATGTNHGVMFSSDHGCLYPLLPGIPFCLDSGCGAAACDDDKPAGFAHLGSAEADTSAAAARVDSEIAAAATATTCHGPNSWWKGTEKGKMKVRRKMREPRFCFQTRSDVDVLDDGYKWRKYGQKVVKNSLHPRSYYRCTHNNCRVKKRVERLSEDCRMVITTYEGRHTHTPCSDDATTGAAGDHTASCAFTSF
# The list shows a part of the results.
# Target: OsWRKY34 (Oryza sativa, UniProt Q0JBA9 1-250)
# Experiment: protein-binding microarray (RPBM); PBS, 2% BSA, 51.3 ng/ul salmon testes DNA, 50 uM zinc acetate, 200 nM TF, 25 C, 1 h; high values mean tight binding
# Conditions: protein: recombinant; tags: N-terminal polyhistidine and DsRed monomer fusion (pET32a); label: CyDye5-dUTP incorporated in the synthesized complementary strand; 3' TTTTT single-stranded linker to array surface; dsDNA, one strand shown
# Procedure, shortened: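 Transcription factors were made in E. coli BL21-CodonPlus as N-terminal fusions to a polyhistidine tag and DsRed, then purified on Ni–NTA. After primer extension with Cy5-dUTP and blocking with 2% BSA, a custom Agilent array was exposed for 1 h at 25 °C to 200 nM protein in PBS, 2% BSA, salmon testes DNA and 50 µM zinc acetate. Washed arrays were scanned on an Axon 4000B, and the binding signal is per-feature fluorescence intensity in arbitrary units.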
row,Sequence,binding signal
1,TGGAATTGATTATGATGCTGTTTCCTTCATGGGAGCTCTACGGAGTCACCTAGTGCAG,10400 fluorescence intensity (a.u.)
2,TACCACATTGTTGTCATGGCACGGCTCCTACTCCAATCAACGGAGTCACCTAGTGCAG,9120 fluorescence intensity (a.u.)
3,GAGTAAGTTTATTTTGCCTCCATTTATTGAATCATCTTCCCGGAGTCACCTAGTGCAG,8130 fluorescence intensity (a.u.)
4,CCGCCGCCCCACGCCCGATGCCACCCGCCGCCGCCGGCTGCGGAGTCACCTAGTGCAG,8100 fluorescence intensity (a.u.)
5,CTCTCGCGTGCATCCCTTTTTGTCCTTACACAAGTGTCCGCGGAGTCACCTAGTGCAG,9240 fluorescence intensity (a.u.)
6,ATCCTGTGTTTTCCCTATTTCTCCGTCTTTTAAATCTTGTCGGAGTCACCTAGTGCAG,8420 fluorescence intensity (a.u.)
7,GCTGCTAGTACACTCAATATCTATGTATTTTTTCTTCTTACGGAGTCACCTAGTGCAG,8820 fluorescence intensity (a.u.)
8,TGAGTGATCCGTTATATCTGTTTTTTTTTTTCTGTTAAAGCGGAGTCACCTAGTGCAG,8310 fluorescence intensity (a.u.)
9,GAGCATGATCTATTTTTGAAAAACCATGTATTCCTGTCTTCGGAGTCACCTAGTGCAG,8710 fluorescence intensity (a.u.)
10,TTCCAACACTGCATGAACAGTGTCATTGGTTTTTCTTCTTCGGAGTCACCTAGTGCAG,8500 fluorescence intensity (a.u.)
11,ATCATTCTGCAGGTGCTACCCTAACTCAAAATTGCATCTTCGGAGTCACCTAGTGCAG,9190 fluorescence intensity (a.u.)
12,TATTTTGTTGGTTCACTATGACATATCTCACTATCTCTTTCGGAGTCACCTAGTGCAG,8250 fluorescence intensity (a.u.)
13,ACATCACCTCGTTTTTTTTCATGTCATCTAAATATTTATACGGAGTCACCTAGTGCAG,10100 fluorescence intensity (a.u.)
14,GCGTGTGTTGTGAGATGTATTATGTTGTGCTTTGTATTTTCGGAGTCACCTAGTGCAG,14900 fluorescence intensity (a.u.)
15,CTGCTTCTACGTGACCGCACACCAATCTCCTTCGCCCTCTCGGAGTCACCTAGTGCAG,8940 fluorescence intensity (a.u.)
16,AAGATATGCCTACATGGTTGTTTATGCAGCAACCTTTGAACGGAGTCACCTAGTGCAG,8180 fluorescence intensity (a.u.)
17,TGTAATTTATCCCGTTGTTACGGTATCCCGTTCTCTATTTCGGAGTCACCTAGTGCAG,9220 fluorescence intensity (a.u.)
18,GCTGACCACGCCTCGCTCTCTCGCGCCGCTCCTCCTCGCTCGGAGTCACCTAGTGCAG,8320 fluorescence intensity (a.u.)
19,TTGCCGATTTACAACAATTATTGTCCAGTTTTCACTGTGTCGGAGTCACCTAGTGCAG,8080 fluorescence intensity (a.u.)
20,CAGAGCAGGGGAGGGGAGGGGAGGGGATCCTGGTGAGCCTCGGAGTCACCTAGTGCAG,17600 fluorescence intensity (a.u.)
21,CGTCTCGAGCCACCTCGCCGCGGAAAACCTCCGTACTCCGCGGAGTCACCTAGTGCAG,8250 fluorescence intensity (a.u.)

row,Sequence,binding signal
1,ACATATCCATGGTCCAGGGAGCTCACCCGTCCAGCGTTTCCGGAGTCACCTAGTGCAG,8080 fluorescence intensity (a.u.)
2,AATTTTTCTATGTTTCTCAATGTATCATGTACTAGTAATTCGGAGTCACCTAGTGCAG,9060 fluorescence intensity (a.u.)
3,CTTGGCTTCCTCTCTTCTCCGTGTTCTTCTTGTCCGCTTTCGGAGTCACCTAGTGCAG,10900 fluorescence intensity (a.u.)
4,TCCTTGCATTTTCCTCCTCAGCTCTTATGCTAGTTATGTGCGGAGTCACCTAGTGCAG,8100 fluorescence intensity (a.u.)
5,GACGCATTCACTCCGCCTCCGCCTCCGCCTCCGCCTCCGCCGGAGTCACCTAGTGCAG,8900 fluorescence intensity (a.u.)
6,AATCATGAGCTAATGGCTCACCTCGTTTTGCGTATCTTTCCGGAGTCACCTAGTGCAG,10300 fluorescence intensity (a.u.)
7,TAGCTCGCTCGGCTCTTCACCAGCTCGATTCGATTCATCGCGGAGTCACCTAGTGCAG,9780 fluorescence intensity (a.u.)
8,CAAATTTATATTCGTCGTTTTTTAGTCCATTTATATATCTCGGAGTCACCTAGTGCAG,8070 fluorescence intensity (a.u.)
9,AAACATGGCCTGTATTCCCCATCTGGCATCTACCAACTTTCGGAGTCACCTAGTGCAG,9780 fluorescence intensity (a.u.)
10,TTGTTGCTCGCGACGCGCAACCGCCCGTGGCCCACCTCACCGGAGTCACCTAGTGCAG,9040 fluorescence intensity (a.u.)
11,TGCGTATCGTCGATCATCGTTGGTCCGTGCGTTCGTTAGTCGGAGTCACCTAGTGCAG,9460 fluorescence intensity (a.u.)
12,GCGATCTTCCAAGAGTACATCTCCTTCGTCGCCTCGTGCGCGGAGTCACCTAGTGCAG,8570 fluorescence intensity (a.u.)
13,TATTCTTTCTCACGTAACGATTTTTTTTCATCATTAAGTTCGGAGTCACCTAGTGCAG,8230 fluorescence intensity (a.u.)
14,CTTTTAATTTTTCCATCACATCGAAACTTTTCTACACACACGGAGTCACCTAGTGCAG,9690 fluorescence intensity (a.u.)
15,GCGGCGATTGGGATTTGGGAGGGAGACGCGGGTATTTGAACGGAGTCACCTAGTGCAG,11100 fluorescence intensity (a.u.)
16,ACTGTTTACTTTCTACTACCAACACTTTGAAGTCAATATACGGAGTCACCTAGTGCAG,8190 fluorescence intensity (a.u.)
17,CCTTTTCGTTTATCTCCATCGATTTTGGTAGCTATACTAGCGGAGTCACCTAGTGCAG,9900 fluorescence intensity (a.u.)
18,AACATGGGGCTAAAAACACGGTACTACTACCGTACCTTCACGGAGTCACCTAGTGCAG,9240 fluorescence intensity (a.u.)
19,TCAAGGGCCCCTTTTATTTGCATGCACCACACCATGTTTCCGGAGTCACCTAGTGCAG,9380 fluorescence intensity (a.u.)
20,CCTGCCTATCTCTCTATAGTTTGTGTCTGTTTTCGTGTGCCGGAGTCACCTAGTGCAG,10000 fluorescence intensity (a.u.)
21,ACTCGCGCCGCCCTGCCCTGTCGTCCCGCCGCATCACCCGCGGAGTCACCTAGTGCAG,9150 fluorescence intensity (a.u.)

# Reformatted: entries from further up
row	Sequence	binding signal
2	AATTTTTCTATGTTTCTCAATGTATCATGTACTAGTAATTCGGAGTCACCTAGTGCAG	9060 fluorescence intensity (a.u.)
3	CTTGGCTTCCTCTCTTCTCCGTGTTCTTCTTGTCCGCTTTCGGAGTCACCTAGTGCAG	10900 fluorescence intensity (a.u.)
4	TCCTTGCATTTTCCTCCTCAGCTCTTATGCTAGTTATGTGCGGAGTCACCTAGTGCAG	8100 fluorescence intensity (a.u.)
5	GACGCATTCACTCCGCCTCCGCCTCCGCCTCCGCCTCCGCCGGAGTCACCTAGTGCAG	8900 fluorescence intensity (a.u.)
6	AATCATGAGCTAATGGCTCACCTCGTTTTGCGTATCTTTCCGGAGTCACCTAGTGCAG	10300 fluorescence intensity (a.u.)
7	TAGCTCGCTCGGCTCTTCACCAGCTCGATTCGATTCATCGCGGAGTCACCTAGTGCAG	9780 fluorescence intensity (a.u.)
8	CAAATTTATATTCGTCGTTTTTTAGTCCATTTATATATCTCGGAGTCACCTAGTGCAG	8070 fluorescence intensity (a.u.)
9	AAACATGGCCTGTATTCCCCATCTGGCATCTACCAACTTTCGGAGTCACCTAGTGCAG	9780 fluorescence intensity (a.u.)
10	TTGTTGCTCGCGACGCGCAACCGCCCGTGGCCCACCTCACCGGAGTCACCTAGTGCAG	9040 fluorescence intensity (a.u.)
11	TGCGTATCGTCGATCATCGTTGGTCCGTGCGTTCGTTAGTCGGAGTCACCTAGTGCAG	9460 fluorescence intensity (a.u.)
12	GCGATCTTCCAAGAGTACATCTCCTTCGTCGCCTCGTGCGCGGAGTCACCTAGTGCAG	8570 fluorescence intensity (a.u.)

# More entries follow:

row,Sequence,binding signal
1,TGAGTTTGTTTGCTGGGTTGGTTCGTGCGTTTTCTTGGATCGGAGTCACCTAGTGCAG,18800 fluorescence intensity (a.u.)
2,CATTCTCGCGACGACTCGTGCTGACTGCTTCGTCACCAACCGGAGTCACCTAGTGCAG,8220 fluorescence intensity (a.u.)
3,CTGCTCTATATATCAAGCCGAAGCCGAAGCCGCCTTGACCCGGAGTCACCTAGTGCAG,8192 fluorescence intensity (a.u.)
4,AATATTTTTCAACTCCACGCATTTTCTTCACATATCAATGCGGAGTCACCTAGTGCAG,8510 fluorescence intensity (a.u.)
5,AAGGGGATCGGAGATGCCGCTGGGCAAGTACTACTGCGACCGGAGTCACCTAGTGCAG,29900 fluorescence intensity (a.u.)
6,TTTGGCACACATCATTTTTTTCAGGTCACCAGTAGCTATCCGGAGTCACCTAGTGCAG,8120 fluorescence intensity (a.u.)
7,CAACCTAATTGGCATTTACTTTTATTGTATCATTTTGTTCCGGAGTCACCTAGTGCAG,9850 fluorescence intensity (a.u.)
8,TTTCAAAACTCGTAAACCCGCGCAACACCAAAACCACTTTCGGAGTCACCTAGTGCAG,8380 fluorescence intensity (a.u.)
9,TATTTTTACCCTTTACGAAACTATTGTTGTCTGTTTCTATCGGAGTCACCTAGTGCAG,9850 fluorescence intensity (a.u.)
10,CCAAAATCTGCATTCTACTATTGCGTTCACCGCCTATAAACGGAGTCACCTAGTGCAG,8710 fluorescence intensity (a.u.)
11,ACGGTCAAATGAAATGTTTGACCGGTAAGAAAAATCAAACCGGAGTCACCTAGTGCAG,10500 fluorescence intensity (a.u.)
12,CCCATCACCCGGCGCTCGCATCGCGTCGCACTCGCCCAACCGGAGTCACCTAGTGCAG,9950 fluorescence intensity (a.u.)
13,GGGTATACCGGTAATAATCACTCCAATACATATTTTTCATCGGAGTCACCTAGTGCAG,9280 fluorescence intensity (a.u.)
14,ACTTTGCAATTTGACATGTCAAAACACCCACACATAATCACGGAGTCACCTAGTGCAG,9540 fluorescence intensity (a.u.)
15,CCCCTCGCGCCACCGCCGCCCGCATCCGCGCCGTCACCGGCGGAGTCACCTAGTGCAG,8490 fluorescence intensity (a.u.)
16,CGGCGTCGTCACCCTCGTTGTAGTGTATCCAAAGCTCGCGCGGAGTCACCTAGTGCAG,8800 fluorescence intensity (a.u.)
17,ACCCCATCGTTAGAGTTCGTGTTTTACCTTTCGTTTTGTACGGAGTCACCTAGTGCAG,8880 fluorescence intensity (a.u.)
18,CGTGCTGTACCACGTTTCTGCATGCCTCGTATTGGCCAAGCGGAGTCACCTAGTGCAG,8560 fluorescence intensity (a.u.)
19,GCTGCTGCTGCCGCCCGGCCGCCACCCGTGACCCGCGCCACGGAGTCACCTAGTGCAG,8860 fluorescence intensity (a.u.)
20,GACCCGTGCCGCCTCCTCGCCGCCGTCGTCGCGCCCCGCGCGGAGTCACCTAGTGCAG,9590 fluorescence intensity (a.u.)
21,AGAGAGAGCGTGGGTGGGGTGGGTGCTCTGGGTGACTGGGCGGAGTCACCTAGTGCAG,10400 fluorescence intensity (a.u.)

row,Sequence,binding signal
1,GCTGCTGCCGCCCGTTGCGCGCCCGTCCCCGTCTCGTGTCCGGAGTCACCTAGTGCAG,8420 fluorescence intensity (a.u.)
2,CTGTGCCAGCAGCATTTGCTCTTCTCTCGAACTGGCTTACCGGAGTCACCTAGTGCAG,8530 fluorescence intensity (a.u.)
3,CCTTGGATTCTCATCAAATATTTAATTTATCTCTTCATTTCGGAGTCACCTAGTGCAG,9590 fluorescence intensity (a.u.)
4,GGGTGTGTAAGGGTAGGTGGAGGGGTGGGTGATGCGAGATCGGAGTCACCTAGTGCAG,20400 fluorescence intensity (a.u.)
5,ACTTTTGCTAGACCAAACAACACTTTTGGTCAATATACACCGGAGTCACCTAGTGCAG,8740 fluorescence intensity (a.u.)
6,ACAGCGCCTGATGTCCAAGTGCCTTTTCGCTGCCGTCGCTCGGAGTCACCTAGTGCAG,9030 fluorescence intensity (a.u.)
7,ATGCACCAAATCAGTTTCTTGTACAACCGTTCGGTCTATTCGGAGTCACCTAGTGCAG,9730 fluorescence intensity (a.u.)
8,CCGGGGAAATCCTCTGGGGATTTGTGGGTGGTTTTGGGCTCGGAGTCACCTAGTGCAG,9980 fluorescence intensity (a.u.)
9,GGTGATTCTATTACTTCTAGGTGACGTATATTTGTCAATGCGGAGTCACCTAGTGCAG,9280 fluorescence intensity (a.u.)
10,TTCTATCAAAATCCTACGTTTTTCCTATTTCTATATTTTCCGGAGTCACCTAGTGCAG,8560 fluorescence intensity (a.u.)
11,CATTCCGCTTTACTGCTCTCGCTTAGCTTTTGCTGAGAATCGGAGTCACCTAGTGCAG,8450 fluorescence intensity (a.u.)
12,AGTACTTTTTTATCAACCATGCCAATTTTTTCTCCTCACACGGAGTCACCTAGTGCAG,9520 fluorescence intensity (a.u.)
13,TTCTCAAGTTTTCTATGTAGAAATTTTTTAGCTATATGTACGGAGTCACCTAGTGCAG,8060 fluorescence intensity (a.u.)
14,AATCTTCTCTTACATGACTTTTTGGTTACATTACGGACACCGGAGTCACCTAGTGCAG,9940 fluorescence intensity (a.u.)
15,CGCCATGGGAGCTTCCTCTCCTCGACCTCGCGCCGGCCAACGGAGTCACCTAGTGCAG,8340 fluorescence intensity (a.u.)
16,ACTAAGTGTCTGTCCTGTTTTGAAGAGAAAAAACTTTTTTCGGAGTCACCTAGTGCAG,8970 fluorescence intensity (a.u.)
17,CGCGCCCGGCGCCTCTCTCCTCCTATTCGCCGTGCTAATCCGGAGTCACCTAGTGCAG,9430 fluorescence intensity (a.u.)
18,TCGGGTTTGAGAGGGTGGTATCCGATGGATACGGATTATCCGGAGTCACCTAGTGCAG,9620 fluorescence intensity (a.u.)
19,TTCTTCCAACTGTCTTCTCTCATTCTCCGCGCGGACGCTTCGGAGTCACCTAGTGCAG,9780 fluorescence intensity (a.u.)
20,TACGTGTTGAGTATAGGTAGGATGGTAGAAGTTATTTTTTCGGAGTCACCTAGTGCAG,8110 fluorescence intensity (a.u.)
21,TGGATTTGTATTGTATTTGGTCTCTGCCGTGTTGCTGCTTCGGAGTCACCTAGTGCAG,9340 fluorescence intensity (a.u.)
